This passage reports activity change (Venus) results from PubChem BioAssay AID1053133 (Broad Institute, 2014).

The list shows a part of the results.

This experiment is described as follows: Vaccinia orthopox stage-specific inhibition, primary screen, cell-based, single point (AID 1053133). As to conditions: Vaccinia-infected cells, mCherry/Venus stage reporter fluorescence; measured here: Venus reporter, other viral stage; stronger effect = lower value; concentration not given here.
`COc1ccc(CN2/C(=N\P(=O)(Oc3ccccc3)Oc3ccccc3)Cc3ccccc3C2C2CC2)cc1` (stereo unspecified): the activity change (Venus) is -0.665%.
